These are yes or no findings as the source states them, for the method shown. Binding seen in cells or lysates may run through a third protein. These calls come from enrichment with a bait or labelling near it, and not all partners need be listed. For part of these data: Tags and fused reporters may be left off the sequences shown.
Experiments:
[1] = target: BirA*-tagged FBXO42 (F-Box Protein 42), full-length human (human) (UniProt Q6P3S6); assay: proximity labelling; BioID: BirA*-tagged bait induced in HEK293 Flp-In T-REx cells, 50 uM biotin for 24 h, with or without 5 uM MG132; streptavidin-Sepharose purification and mass spectrometry
[2] = target: T1, FLAG-tagged C16orf72/HAPSTR1, full-length human (human) (UniProt Q14CZ0); assay: affinity purification with mass spectrometry; FLAG-tagged bait in HEK293 Flp-In T-REx and U2OS Flp-In T-REx cells; anti-FLAG M2 magnetic beads, on-bead digest, SAINT filtering, biological triplicates
T1 sequence: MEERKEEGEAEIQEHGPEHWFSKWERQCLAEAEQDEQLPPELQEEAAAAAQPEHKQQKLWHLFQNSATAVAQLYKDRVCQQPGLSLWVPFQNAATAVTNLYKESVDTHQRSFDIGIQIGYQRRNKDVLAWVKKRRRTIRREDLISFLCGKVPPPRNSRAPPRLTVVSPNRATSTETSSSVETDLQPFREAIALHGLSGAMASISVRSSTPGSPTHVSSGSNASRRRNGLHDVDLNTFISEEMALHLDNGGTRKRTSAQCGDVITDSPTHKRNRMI

Amino acid sequences for entries named in this document (tags omitted).
UniProt Q6P3S6: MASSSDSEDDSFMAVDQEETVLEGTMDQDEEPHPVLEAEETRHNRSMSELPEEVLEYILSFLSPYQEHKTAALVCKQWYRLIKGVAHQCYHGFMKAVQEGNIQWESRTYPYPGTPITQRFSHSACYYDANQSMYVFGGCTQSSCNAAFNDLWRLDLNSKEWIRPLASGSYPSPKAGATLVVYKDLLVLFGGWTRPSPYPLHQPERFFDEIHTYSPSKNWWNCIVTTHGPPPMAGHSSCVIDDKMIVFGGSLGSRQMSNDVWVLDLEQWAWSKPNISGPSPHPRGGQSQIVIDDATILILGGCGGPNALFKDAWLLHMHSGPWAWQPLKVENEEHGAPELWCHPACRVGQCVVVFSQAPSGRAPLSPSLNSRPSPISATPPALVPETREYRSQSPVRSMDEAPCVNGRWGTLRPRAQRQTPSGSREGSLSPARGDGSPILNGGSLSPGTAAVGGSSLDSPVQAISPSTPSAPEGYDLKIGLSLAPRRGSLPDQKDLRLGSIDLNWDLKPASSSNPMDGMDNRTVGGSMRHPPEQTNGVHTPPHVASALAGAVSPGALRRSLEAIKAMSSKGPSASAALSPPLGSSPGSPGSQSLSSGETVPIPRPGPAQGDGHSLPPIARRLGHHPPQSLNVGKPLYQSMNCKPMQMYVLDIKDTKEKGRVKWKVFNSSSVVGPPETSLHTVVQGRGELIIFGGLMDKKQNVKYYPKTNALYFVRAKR
UniProt P51587: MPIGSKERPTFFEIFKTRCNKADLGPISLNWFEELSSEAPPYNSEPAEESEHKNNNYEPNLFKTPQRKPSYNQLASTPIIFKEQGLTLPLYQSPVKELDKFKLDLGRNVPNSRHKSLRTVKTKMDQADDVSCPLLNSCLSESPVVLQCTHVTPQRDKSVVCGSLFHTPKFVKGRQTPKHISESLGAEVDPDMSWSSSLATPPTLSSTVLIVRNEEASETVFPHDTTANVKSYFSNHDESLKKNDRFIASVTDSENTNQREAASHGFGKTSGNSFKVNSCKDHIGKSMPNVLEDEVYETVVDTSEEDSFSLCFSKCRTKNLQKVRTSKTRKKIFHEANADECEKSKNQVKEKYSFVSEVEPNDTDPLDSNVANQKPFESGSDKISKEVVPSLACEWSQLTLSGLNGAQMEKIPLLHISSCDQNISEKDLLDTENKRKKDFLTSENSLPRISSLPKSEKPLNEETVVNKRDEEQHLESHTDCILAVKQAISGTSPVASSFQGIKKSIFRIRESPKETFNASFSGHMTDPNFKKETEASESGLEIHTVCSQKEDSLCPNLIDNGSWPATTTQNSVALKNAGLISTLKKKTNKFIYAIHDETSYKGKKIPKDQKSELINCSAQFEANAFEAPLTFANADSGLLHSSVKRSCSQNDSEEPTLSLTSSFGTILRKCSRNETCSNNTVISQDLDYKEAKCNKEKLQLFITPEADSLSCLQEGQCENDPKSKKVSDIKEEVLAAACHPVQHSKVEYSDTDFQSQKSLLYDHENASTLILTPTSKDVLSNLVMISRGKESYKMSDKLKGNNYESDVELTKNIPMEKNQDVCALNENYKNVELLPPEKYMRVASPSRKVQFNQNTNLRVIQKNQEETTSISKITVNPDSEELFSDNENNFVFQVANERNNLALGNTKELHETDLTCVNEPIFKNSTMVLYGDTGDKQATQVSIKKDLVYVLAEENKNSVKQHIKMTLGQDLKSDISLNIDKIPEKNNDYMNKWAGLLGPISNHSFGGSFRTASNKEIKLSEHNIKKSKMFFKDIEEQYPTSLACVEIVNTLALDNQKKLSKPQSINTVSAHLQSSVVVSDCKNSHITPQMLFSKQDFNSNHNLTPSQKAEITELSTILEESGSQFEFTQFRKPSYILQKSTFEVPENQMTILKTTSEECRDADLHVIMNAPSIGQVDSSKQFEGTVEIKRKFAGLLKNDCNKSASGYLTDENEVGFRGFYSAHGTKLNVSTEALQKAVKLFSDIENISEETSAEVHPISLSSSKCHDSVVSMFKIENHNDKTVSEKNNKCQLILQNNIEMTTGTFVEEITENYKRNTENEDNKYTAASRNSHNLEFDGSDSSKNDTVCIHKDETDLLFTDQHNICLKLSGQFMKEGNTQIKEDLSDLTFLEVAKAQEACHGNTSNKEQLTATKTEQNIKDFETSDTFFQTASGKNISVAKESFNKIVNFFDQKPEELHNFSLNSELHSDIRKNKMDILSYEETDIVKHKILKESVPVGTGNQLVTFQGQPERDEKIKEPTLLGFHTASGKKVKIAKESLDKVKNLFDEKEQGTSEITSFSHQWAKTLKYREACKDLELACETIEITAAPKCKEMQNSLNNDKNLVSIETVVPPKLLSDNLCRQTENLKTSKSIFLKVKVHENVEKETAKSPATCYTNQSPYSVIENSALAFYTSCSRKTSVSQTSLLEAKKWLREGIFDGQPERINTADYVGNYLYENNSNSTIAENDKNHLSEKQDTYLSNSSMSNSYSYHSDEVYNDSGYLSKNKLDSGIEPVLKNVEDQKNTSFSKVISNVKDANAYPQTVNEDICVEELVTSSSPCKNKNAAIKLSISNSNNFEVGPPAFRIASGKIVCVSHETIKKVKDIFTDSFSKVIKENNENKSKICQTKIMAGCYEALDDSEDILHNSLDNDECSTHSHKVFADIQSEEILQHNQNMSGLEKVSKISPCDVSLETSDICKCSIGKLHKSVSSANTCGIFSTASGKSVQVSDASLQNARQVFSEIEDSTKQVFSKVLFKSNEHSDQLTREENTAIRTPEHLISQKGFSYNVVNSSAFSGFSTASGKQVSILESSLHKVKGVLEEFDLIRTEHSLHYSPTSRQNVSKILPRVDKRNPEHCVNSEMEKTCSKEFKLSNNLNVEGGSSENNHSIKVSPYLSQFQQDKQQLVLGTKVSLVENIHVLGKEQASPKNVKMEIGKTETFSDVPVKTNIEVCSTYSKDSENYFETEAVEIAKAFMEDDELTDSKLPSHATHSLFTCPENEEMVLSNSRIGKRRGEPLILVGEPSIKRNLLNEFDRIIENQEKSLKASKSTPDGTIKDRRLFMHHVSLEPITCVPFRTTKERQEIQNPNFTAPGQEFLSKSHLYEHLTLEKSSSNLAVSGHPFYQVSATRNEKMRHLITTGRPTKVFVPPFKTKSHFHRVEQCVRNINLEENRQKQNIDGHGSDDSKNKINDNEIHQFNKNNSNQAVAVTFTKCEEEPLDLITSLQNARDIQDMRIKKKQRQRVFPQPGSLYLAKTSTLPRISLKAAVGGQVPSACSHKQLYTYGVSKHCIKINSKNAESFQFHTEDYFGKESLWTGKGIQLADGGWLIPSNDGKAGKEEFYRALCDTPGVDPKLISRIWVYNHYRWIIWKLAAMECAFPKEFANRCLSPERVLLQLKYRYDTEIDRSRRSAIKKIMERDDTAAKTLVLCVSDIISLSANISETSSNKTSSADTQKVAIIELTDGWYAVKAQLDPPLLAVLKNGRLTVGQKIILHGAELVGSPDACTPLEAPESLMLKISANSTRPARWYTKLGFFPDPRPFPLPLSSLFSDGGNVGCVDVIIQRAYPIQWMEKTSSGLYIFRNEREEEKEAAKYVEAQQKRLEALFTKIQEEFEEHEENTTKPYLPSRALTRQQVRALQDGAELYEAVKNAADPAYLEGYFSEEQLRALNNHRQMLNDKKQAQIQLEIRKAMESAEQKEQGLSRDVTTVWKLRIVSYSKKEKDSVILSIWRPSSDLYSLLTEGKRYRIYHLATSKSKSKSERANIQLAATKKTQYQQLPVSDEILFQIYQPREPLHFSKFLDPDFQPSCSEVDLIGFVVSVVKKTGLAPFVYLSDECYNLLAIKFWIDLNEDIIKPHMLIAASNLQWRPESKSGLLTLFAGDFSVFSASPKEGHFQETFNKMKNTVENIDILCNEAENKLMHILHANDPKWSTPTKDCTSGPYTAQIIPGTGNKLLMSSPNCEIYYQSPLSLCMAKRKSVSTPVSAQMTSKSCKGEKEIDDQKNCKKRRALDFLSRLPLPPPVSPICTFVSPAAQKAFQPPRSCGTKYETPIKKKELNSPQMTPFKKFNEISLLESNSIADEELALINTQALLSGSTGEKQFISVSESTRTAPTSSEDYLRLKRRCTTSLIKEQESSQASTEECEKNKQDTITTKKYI

Substance | binding [1] | binding [2]
BRCA2 (from UniProt P51587 1-3418) | binds | 
HUWE1 (from UniProt Q7Z6Z7 1-4374) | binds | binds
